Assay [1] addresses T1, FLAG-HHIP wild-type (Hedgehog interacting protein) (human) (UniProt Q96QV1).
T1 sequence: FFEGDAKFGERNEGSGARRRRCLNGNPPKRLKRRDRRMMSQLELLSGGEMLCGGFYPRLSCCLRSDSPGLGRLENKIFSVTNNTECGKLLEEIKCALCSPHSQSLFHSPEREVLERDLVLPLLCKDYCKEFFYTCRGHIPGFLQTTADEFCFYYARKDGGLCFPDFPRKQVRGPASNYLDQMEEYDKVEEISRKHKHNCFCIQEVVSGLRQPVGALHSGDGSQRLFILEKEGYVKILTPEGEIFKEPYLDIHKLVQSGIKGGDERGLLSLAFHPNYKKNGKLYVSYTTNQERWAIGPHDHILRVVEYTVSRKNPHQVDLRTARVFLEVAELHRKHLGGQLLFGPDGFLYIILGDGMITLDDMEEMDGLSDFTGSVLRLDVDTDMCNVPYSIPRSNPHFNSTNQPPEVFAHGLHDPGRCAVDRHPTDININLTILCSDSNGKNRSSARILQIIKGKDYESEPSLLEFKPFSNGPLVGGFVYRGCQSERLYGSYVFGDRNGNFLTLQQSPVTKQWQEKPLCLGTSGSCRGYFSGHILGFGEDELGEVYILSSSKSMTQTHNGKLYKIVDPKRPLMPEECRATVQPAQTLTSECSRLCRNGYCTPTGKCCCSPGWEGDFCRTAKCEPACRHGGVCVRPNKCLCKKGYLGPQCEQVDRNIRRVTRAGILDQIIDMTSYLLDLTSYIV
The experiment in a line: co-IP; 8505C cells co-transfected with SHH-HA and FLAG-HHIP-WT or FLAG-HHIP-G516R for 24 h; cleared cell extracts incubated with anti-FLAG antibody 12 h at 4 °C, protein A/G PLUS-Agarose overnight, washed three times with PBS; HA detected by western blot.

Protein sequences, listed by entry. Tags and fused reporters are not part of them. Residues count along the entry.
UniProt Q15465, residues 24-462: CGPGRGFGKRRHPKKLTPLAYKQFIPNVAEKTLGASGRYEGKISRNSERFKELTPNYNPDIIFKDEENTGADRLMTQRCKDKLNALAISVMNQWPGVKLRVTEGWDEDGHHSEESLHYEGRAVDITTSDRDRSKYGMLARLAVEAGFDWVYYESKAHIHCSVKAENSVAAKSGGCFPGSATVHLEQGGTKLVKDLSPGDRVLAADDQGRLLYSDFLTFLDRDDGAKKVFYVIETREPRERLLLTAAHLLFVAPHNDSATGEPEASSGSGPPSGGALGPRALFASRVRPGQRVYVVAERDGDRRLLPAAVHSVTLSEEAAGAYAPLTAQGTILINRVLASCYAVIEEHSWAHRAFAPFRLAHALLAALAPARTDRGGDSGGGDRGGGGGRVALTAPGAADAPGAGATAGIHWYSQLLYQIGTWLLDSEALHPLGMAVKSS

Assay [2] concerns the target T2, FLAG-HHIP-G516R mutant (human) (UniProt Q96QV1).
T2 sequence: T1 sequence with G499R
Described as above.

Consider one substance from paper PMC6213497.

Residue numbers refer to the chain shown, from its start. Results are given in words; binding and its absence hold for the method and conditions named. In cells and extracts the contact can be indirect. Some results given as binding are weak or reduced against the parent protein; the word gives no strength. Where a sequence is shown, tags or fusion partners need not be part of it.

For “SHH-HA (Sonic Hedgehog) (from UniProt Q15465 24-462) (ligand)”, the binding result in assay [1] and in assay [2] was “binds” throughout.
